# Results reported in publication PMC11339399.
# Amino acid sequences for entries named in this document (tags omitted).
# UniProt P37802: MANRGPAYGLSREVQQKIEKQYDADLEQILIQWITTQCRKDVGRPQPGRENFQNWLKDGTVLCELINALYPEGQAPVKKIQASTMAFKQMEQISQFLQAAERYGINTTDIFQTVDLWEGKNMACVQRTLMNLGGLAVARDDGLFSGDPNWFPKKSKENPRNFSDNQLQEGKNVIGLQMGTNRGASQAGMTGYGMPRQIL
# UniProt P07355: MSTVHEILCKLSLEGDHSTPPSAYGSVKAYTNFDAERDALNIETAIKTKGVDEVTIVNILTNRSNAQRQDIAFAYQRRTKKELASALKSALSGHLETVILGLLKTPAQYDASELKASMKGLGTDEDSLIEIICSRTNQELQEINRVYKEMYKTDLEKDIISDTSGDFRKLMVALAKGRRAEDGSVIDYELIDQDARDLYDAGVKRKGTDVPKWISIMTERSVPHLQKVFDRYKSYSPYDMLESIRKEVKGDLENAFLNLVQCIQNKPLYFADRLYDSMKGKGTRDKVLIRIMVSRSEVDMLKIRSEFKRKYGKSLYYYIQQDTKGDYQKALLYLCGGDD
# UniProt P16402: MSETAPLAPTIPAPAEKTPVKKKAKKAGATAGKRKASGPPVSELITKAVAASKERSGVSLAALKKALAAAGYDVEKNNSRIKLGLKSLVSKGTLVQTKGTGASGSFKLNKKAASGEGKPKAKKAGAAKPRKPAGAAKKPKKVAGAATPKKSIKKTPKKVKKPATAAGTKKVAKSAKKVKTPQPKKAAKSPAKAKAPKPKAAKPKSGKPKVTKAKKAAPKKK
# UniProt P67809: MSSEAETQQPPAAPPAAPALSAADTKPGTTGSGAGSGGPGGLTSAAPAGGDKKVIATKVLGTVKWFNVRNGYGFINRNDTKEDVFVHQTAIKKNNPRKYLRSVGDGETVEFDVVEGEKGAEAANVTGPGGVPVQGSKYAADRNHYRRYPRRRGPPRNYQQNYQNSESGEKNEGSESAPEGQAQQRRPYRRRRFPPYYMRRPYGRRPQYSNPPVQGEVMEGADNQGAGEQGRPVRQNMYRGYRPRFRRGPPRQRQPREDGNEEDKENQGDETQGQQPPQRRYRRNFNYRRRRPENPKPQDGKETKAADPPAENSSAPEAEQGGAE
# UniProt P08238: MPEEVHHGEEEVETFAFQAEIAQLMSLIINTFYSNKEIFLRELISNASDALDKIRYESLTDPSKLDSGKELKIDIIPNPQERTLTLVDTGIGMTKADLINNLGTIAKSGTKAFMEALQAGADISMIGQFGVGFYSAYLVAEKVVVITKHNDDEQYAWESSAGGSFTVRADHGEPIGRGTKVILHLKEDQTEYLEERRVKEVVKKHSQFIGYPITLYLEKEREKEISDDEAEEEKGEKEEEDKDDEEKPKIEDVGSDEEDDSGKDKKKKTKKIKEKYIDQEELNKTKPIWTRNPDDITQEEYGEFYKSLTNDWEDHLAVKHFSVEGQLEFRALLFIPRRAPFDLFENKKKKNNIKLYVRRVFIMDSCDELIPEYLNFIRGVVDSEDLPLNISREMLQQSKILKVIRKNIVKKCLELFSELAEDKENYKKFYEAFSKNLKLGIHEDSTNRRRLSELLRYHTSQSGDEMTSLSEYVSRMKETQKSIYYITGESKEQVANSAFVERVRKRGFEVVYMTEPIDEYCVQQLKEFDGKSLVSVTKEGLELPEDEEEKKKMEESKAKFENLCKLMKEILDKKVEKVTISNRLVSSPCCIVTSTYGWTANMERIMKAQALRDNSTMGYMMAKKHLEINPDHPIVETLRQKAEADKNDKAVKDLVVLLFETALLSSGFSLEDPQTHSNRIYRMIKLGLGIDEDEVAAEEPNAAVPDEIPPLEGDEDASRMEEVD
# Biological target: TAGLN2 (human) (UniProt P37802)
# Experiment: affinity purification with mass spectrometry; Co-IP (Pierce Co-IP kit, antibody coupled to resin, cell lysate overnight at 4 °C) followed by LC-MS/MS to find TAGLN2-binding candidates
row,Substance,binding
1,ANXA2 (from UniProt P07355 1-339),binds
2,HIST1H1D (from UniProt P16402 1-221),binds
3,YBX1 (from UniProt P67809 1-324),binds
4,Hsp90AB1 (from UniProt P08238 1-724),binds

# No constants are given. Whether binding was seen depends on the method and setting. Binding seen in cells or lysates may run through a third protein. A yes stands for co-enrichment or nearness to the bait. Other partners may have been found.
